Results are given in words; binding and its absence hold for the method and conditions named. In cells and extracts the contact can be indirect. Here binding means that the protein was enriched with, or labelled near, the bait; the list need not be complete.
B1: Abi3 (protein, UniProt Q8BYZ1 1-367)
chain: MAELQQLQQLQEFDIPTGREALRGNHSALLRVANYCEDNYLQATDKRKALEETMAFTTQALASVAYQVGNLAGHTLRMLDLQGAALRQVEAKMSTLGQMVNMHMEKVARREIGTLATVVRLPSNQKVIPPESLPSLTPYHRKPLNFACLDDIGHGVKDLSTQLSRTGTLSRKSIKAPATPVSATLGRPPRIPEPVQLPAVPDGKLSAASSASSLASAGSAEGASGIPQSKGQVAPATPPPPPVAPVTPPPPPLSAEVFLPPPPLEVSQPPLEAELPLPPPPALEGDELGLLPPPPPGFGPDEPSWVPASYLEKVVTLYPYTRQKDNELSFSEGTVICVTRRYSDGWCEGVSSEGTGFFPGNYVEPSC
B2: RIAM/Prel1/Apbblip (protein, UniProt Q8R5A3 1-670)
chain: MGESNEDIDQMFSTLLGEMDLLTQSLGVDTLPPPDPNPPREEFNYTVGFKDLNESLNALEDQDLDALMADLVADISEAEQRTIQAQKESSQNQDRFALLRASDGQGTASGGYGASAAAIDVSHHEEALPPPPVEPMLDLLPPPPPPPPPELLSKEEEEAKAKADKIKLALEKLKEAKVKKLVVKVHMDDSSTKSLMVDERQLARDVLDNLFEKTHCDCNVDWCLYEIYPELQIERVFEDHENVVEVLSDWTRDTENKVLFLEKEERYAVFKNPQNFYLDNKGKKENKETNEKMNAKNKEYLLEESFCGTSIIVPELEGALYLKEDGKKSWKRRYFLLRASGIYYVPKGKTKTSRDLACFIQFENVNIYYGIQCKMKYKAPTDHCFVLKHPQIQKESQYIKYLCCDDARTLSQWVMGIRIAKYGKTLYDNYQRAVARAGLASRWTNLGTVGTPMPAQPSTVSSGLKTGTSQPNGQMPQAIPSAGPPLQEAQTQIETTKDEKQGLGNHSPGATRENHRPKSSLPPPPPPVRRSSDTCGSPALPSKVKGPGTCTFPHPPENFLPPPPPPPPEEDNSGLLPPPPPPPYLEEPPDFVPPPPPPAAVEDSALPPPPPPPPCLSQEITKSSPLPPKKPLVPPKRQENQGLPGAPGNSEQDFMSDLMKALQKKRGNIP
B3: Lamellipodin/Raph1 (protein, UniProt F2Z3U3 1-1266)
chain: MEQLSDEEIDHGAEEDSDKEDQDLDKMFGAWLGELDRLTQSLDSDKPKEPVKRSPLRQETNMANFSYRFSIYNLNEALNQGETVDLDALMADLCSIEQELSSIGSGNSKRQVTEPKVPQKLPAGRHTSKHGTLRGPSSSSNRTTKPSHANYSLDDITAQLEQASLSMDEAAQQSLVEDPKPLVTNQHRRTASAGTVSDAEARSISNSSRSSITSAASSMDSLDIDKVTRPQELDLTTHQGQPITEEEQAAKLKAEKIRVALEKIKEAQVKKLVIRVHMSDDSSKTMMVDERQTVRQVLDNLMDKSHCGYSLDWSLVETISELQMERIFEDHENLVENLLNWTRDSQNKLIFMERIEKYALFKNPQNYLLGKKETAEMADRNKEVLLEECFCGSSVTVPEIEGVLWLKDDGKKSWKKRYFLLRASGIYYVPKGKAKVSRDLVCFLQLDHVNVYYGQDYRNKYKAPTDCCLALKHPQIQKKSQYIKYLCCDDARTLHQWVNGIRIAKYGKQLYTNYQEALKRTESAYDWTSLSSSSIKSGSSSSSIPESQSNHSNQSDSGVSDTLPTGHIRSQSTVSSIFSEAWKRGTQLEESSKARMESMNRSYTSLMPPLSPQTKIITPYTASQPSPPLPPPPPPPPPPPPPPPPPPPPLPSQSAPSSGSAATMFVKYSTITRLQNAAQHSGTLFKSPTPPAMQPLPLASQSKAQIVVPPNGVIPPPPPPPPPPTPGSAMAQLKPVPCAPSLPQFSPQPPPLKIHQVQHLPQTAPPTPPPAPPITATVPPQAPPKPLVTIPPSASTKTVSPVVAQAVPPTPAPPVPPAKKQPVFPVSHIPPTPPVQPTPHPPPTLPKQQSFGVKPPPSPLSPVPSVVKQIASQFPPPPTPPPVDSQPLKSLPASGTPQSPPAVKAKPKWQPSSIPVPSPDFPPPPPESSLVFPPPPPPAPAPAPPPPPPPPPPPPPVPPTASPTPDKGGSPGKKTSKMSSPGGKKPPPTPQRNSSIKSGSCAEHPEPKRPSVDSLVSKFAPPAESGSPSKETPPPPAAPPKPGKLHLSGVNLPGIHQQGIVSAKASVLSGRGKDVVVEFPSPPSDSDFPPPPPEIELPLPPIEIPAVFSGNTSPKVAVVNPQPQLWSKTSVKKAPPPTRPKRNDSTRLTQADISEQPAMTTVVPQVPTSPKSSLSVQPGFLADLNRTLQRKSITRHGSLSSSRMSRAEPTATMDDMALPPPPPELLSDQQKAGFGGSHISGYATLRRGPPPAPPKRDQNTKLSRDW
B4: Hem1/Nckap1l/Nap2 (protein, UniProt Q8K1X4 1-1134)
chain: MSLTSAYQLKLAEKLTILNDRGQGVLIRMYNIKKTCSDSKSKPPFLLEKSMESCLKYINKKFPNIDVRNSTQHLGPVHREKAEIIRFLTNYYQSFVDVMEFRDHVYELLNTIDACQCHFDINLNFDFTRSYLDLIVTYTSVILLLSRIEDRRILIGMYNCAHEMLHGHSDPSFARLGQMVLEYDHPLKKLTEEFGPHTKAVSGALLSLHFLFVRRNQGAEQWRSAQLLSLISSPPAMINPANSDTMACEYLSVEVMERWIIIGFLLCHGCLNSNSQCQKLWKLCLEGSLYITLIREDVLQVHKVTEDLFSSLKGYSKRVADIKESKEHAITNSGQFHCQRRQFLRTAVKELETVLNDEPGLLGPKALFAFMALSFIRDEVTWLVRHTENVTKTKTPEDYADSSIAELLFLLEEIRALVRRHIKVIQQYHLQYLARFDVLVLSDIIQNLSVCPEEESVIMSSFVSILSSLNLKQVDNEEKFDFSGLRLDWFRLQAYTSVSKAPLHLHENPDLAKVMNLIIFHSQMLDSVEKMLVETSDLSTFCFHLRTFEKMFATTLEEPTMLRYTIAFPLICAHFVHCVHEMCPEEYPHLKNHGLHHCNSFLEDLAKQTSNCVLEICAEQRNLNEQLLPKHCATTISKAKNKKSMKQRQAPRKGEPERDKPGAESHRKNRSLVTNMDKLHLNLTELALAMNHVHSFSVFEHTIFPSEYLSSHLEARLNRAIVTLAGYNATTQEILRPSELLAGVKAYISFIQSLAQFLGADASRIVRNALLQQTQPLDSSGEQTVTTLYTNWYLESLLRQASSGAIVLSPAMQAFISLPRDGEQNFSAEEFSDISEMRALAEILGPYGMKFLSENLMWHVTSQIVELKKLVVENMDILVQIRSNFSKPELMASLLPQLTGAENVLKRMTIIGVILSFRAMAQEGLQEVFSAHCPFLMGPIECLKEFVTPDTDIKVTLSVFELACAAGVSCDIDPALVAAIANLKADNSSPEEEYKVACLLLIFLAVSLPLLATDPSSFFSIEKDGYNNNIHCLTKAIIQVSAALFTLYNKNIETHLKEFLVVASVSLLQLGQETDKLKTRNRESISLLMRLVVEESPFLTLDMLESCFPYVLLRNAYREVSRAFYLNRLPASSH
B5: Hem2/Nckap1/Nap1 (protein, UniProt P28660 1-1128)
chain: MSRSVLQPSQQKLAEKLTILNDRGVGMLTRLYNIKKACGDPKAKPSYLIDKNLESAVKFIVRKFPAVETRNNNQQLAQLQKEKSEILKNLALYYFTFVDVMEFKDHVCDLLNTIDVCQVFFDITVNFDLTKNYLDLTVTYTTLMILLSRIEERKAIIGLYNYAHEMTHGASDREYPRLGQMIVDYENPLKKMMEEFVPHSKSLSDALISLQMVYPRRNLSADQWRNAQLLSLISAPSTMLNPAQSDTMPCEYLSLDAMEKWIIFGFILCHGMLNTEATALNLWKLALQSSSCLSLFRDEVFHIHKAAEDLFVNIRGYNKRINDIRECKEAAVSHAGSMHRERRKFLRSALKELATVLSDQPGLLGPKALFVFMALSFARDEIIWLLRHADNMPKKSADDFIDKHIAELIFYMEELRAHVRKYGPVMQRYYVQYLSGFDAVVLNELVQNLSVCPEDESIIMSSFVNTMTSLSVKQVEDGEVFDFRGMRLDWFRLQAYTSVSKASLSLADHRELGKMMNTIIFHTKMVDSLVEMLVETSDLSIFCFYSRAFEKMFQQCLELPSQSRYSIAFPLLCTHFMSCTHELCPEERHHIGDRSLSLCNMFLDEMAKQARNLITDICTEQCTLSDQLLPKHCAKTISQAVNKKSKKQTGKKGEPEREKPGVESMRKNRLVVTNLDKLHTALSELCFSINYVPNMAVWEHTFTPREYLTSHLEIRFTKSIVGMTMYNQATQEIAKPSELLTSVRAYMTVLQSIENYVQIDITRVFNNVLLQQTQHLDSHGEPTITSLYTNWYLETLLRQVSNGHIAYFPAMKAFVNLPTENELTFNAEEYSDISEMRSLSELLGPYGMKFLSESLMWHISSQVAELKKLVVENVDVLTQMRTSFDKPDQMAALFKRLSSVDSVLKRMTIIGVILSFRSLAQEALRDVLSYHIPFLVSSIEDFKDHIPRETDMKVAMNVYELSSAAGLPCEIDPALVVALSSQKSENISPEEEYKIACLLMVFVAVSLPTLASNVMSQYSPAIEGHCNNIHCLAKAINQIAAALFTIHKGSIEDRLKEFLALASSSLLKIGQETDKTTTRNRESVYLLLDMIVQESPFLTMDLLESCFPYVLLRNAYHAVYKQSVTSSA

Chains of the proteins cited; added tags and fusions are not shown. Residues count along the entry.
UniProt P50552, residues 1-113: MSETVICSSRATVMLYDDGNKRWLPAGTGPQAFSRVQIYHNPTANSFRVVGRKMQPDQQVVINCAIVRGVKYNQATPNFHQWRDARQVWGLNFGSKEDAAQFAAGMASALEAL
UniProt Q8CBW3: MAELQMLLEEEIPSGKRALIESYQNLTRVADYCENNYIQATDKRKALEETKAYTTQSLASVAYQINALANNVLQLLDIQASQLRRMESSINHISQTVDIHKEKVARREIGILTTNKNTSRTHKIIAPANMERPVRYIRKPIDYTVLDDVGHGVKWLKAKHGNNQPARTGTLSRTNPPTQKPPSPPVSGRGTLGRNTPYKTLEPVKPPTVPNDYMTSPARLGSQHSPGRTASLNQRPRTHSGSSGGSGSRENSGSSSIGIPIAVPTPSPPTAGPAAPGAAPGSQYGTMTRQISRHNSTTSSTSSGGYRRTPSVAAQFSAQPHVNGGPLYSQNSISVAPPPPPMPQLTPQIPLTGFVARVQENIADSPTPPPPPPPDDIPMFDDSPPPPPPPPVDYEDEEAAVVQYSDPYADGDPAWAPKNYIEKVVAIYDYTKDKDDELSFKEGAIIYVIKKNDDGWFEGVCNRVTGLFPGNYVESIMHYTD
UniProt Q7TMB8: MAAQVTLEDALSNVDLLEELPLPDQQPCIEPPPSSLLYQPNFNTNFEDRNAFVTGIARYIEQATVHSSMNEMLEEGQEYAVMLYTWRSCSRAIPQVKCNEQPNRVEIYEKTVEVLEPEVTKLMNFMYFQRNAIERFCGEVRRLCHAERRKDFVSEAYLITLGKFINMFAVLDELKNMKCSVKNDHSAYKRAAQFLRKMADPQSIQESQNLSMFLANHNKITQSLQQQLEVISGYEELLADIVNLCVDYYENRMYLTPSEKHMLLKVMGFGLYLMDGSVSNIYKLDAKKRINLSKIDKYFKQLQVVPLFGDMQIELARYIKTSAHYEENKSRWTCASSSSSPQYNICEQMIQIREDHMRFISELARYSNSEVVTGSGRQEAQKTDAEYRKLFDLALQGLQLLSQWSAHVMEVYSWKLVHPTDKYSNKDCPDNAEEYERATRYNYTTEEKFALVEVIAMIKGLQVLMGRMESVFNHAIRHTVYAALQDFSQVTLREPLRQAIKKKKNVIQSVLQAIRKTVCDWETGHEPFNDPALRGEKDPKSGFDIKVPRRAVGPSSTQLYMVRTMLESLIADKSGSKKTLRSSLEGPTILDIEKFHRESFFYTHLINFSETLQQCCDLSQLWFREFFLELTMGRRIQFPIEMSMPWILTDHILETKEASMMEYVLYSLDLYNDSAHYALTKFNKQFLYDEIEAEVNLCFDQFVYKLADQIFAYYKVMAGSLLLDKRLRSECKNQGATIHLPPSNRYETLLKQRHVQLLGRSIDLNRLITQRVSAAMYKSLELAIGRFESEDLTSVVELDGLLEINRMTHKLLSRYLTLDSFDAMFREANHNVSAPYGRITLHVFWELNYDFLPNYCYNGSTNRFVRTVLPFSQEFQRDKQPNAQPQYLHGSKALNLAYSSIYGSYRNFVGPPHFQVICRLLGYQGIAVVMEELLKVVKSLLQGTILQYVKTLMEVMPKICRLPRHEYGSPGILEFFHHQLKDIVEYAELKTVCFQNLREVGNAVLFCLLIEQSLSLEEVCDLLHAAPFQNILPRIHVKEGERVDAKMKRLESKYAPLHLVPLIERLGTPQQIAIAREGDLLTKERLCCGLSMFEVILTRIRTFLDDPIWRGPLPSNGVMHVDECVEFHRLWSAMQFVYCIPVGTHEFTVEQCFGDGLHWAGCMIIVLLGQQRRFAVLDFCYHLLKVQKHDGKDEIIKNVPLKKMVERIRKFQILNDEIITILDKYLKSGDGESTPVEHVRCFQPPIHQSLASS
UniProt Q5SQX6: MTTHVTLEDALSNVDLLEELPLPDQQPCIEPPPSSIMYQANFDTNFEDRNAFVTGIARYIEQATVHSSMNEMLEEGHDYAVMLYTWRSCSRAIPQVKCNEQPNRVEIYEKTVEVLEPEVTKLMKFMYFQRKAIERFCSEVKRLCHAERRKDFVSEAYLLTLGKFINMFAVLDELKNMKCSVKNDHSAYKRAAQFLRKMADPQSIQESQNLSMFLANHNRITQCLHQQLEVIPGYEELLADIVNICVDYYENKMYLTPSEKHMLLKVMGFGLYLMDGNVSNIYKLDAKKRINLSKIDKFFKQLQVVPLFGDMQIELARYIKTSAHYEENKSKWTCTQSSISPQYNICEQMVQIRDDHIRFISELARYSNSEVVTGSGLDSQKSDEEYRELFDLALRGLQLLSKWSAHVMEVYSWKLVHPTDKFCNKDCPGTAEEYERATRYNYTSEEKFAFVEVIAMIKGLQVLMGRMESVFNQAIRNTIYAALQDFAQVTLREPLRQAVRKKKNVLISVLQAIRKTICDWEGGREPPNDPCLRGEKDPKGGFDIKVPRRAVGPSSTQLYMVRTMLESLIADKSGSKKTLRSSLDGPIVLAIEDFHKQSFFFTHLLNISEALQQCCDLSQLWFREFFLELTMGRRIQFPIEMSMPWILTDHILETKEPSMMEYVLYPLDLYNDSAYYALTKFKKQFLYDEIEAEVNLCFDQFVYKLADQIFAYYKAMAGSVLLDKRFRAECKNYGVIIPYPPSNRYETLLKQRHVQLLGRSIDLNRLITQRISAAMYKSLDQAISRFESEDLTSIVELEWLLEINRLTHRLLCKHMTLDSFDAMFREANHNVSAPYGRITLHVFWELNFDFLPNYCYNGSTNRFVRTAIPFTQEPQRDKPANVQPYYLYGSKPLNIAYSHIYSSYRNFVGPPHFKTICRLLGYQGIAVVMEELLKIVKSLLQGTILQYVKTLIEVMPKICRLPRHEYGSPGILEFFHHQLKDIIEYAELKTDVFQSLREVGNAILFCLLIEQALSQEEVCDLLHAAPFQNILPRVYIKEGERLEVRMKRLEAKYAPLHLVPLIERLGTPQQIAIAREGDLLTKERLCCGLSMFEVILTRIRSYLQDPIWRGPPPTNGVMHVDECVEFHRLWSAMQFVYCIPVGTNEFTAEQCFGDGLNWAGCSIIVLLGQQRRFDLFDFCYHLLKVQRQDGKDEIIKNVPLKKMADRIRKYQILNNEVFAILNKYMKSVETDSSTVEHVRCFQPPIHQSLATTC
UniProt Q8BH43: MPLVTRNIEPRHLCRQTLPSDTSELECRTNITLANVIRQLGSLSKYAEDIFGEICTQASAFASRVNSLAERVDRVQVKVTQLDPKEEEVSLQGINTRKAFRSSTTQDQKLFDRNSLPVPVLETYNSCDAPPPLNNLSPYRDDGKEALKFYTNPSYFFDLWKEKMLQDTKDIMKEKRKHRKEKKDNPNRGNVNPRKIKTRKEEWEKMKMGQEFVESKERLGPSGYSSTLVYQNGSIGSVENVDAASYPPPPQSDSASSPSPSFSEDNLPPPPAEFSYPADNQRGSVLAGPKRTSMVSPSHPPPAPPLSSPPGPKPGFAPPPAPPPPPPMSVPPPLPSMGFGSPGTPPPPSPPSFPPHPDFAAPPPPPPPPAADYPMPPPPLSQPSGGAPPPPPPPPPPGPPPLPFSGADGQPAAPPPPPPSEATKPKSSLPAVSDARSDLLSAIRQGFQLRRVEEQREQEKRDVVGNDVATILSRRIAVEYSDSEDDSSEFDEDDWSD
UniProt O08808: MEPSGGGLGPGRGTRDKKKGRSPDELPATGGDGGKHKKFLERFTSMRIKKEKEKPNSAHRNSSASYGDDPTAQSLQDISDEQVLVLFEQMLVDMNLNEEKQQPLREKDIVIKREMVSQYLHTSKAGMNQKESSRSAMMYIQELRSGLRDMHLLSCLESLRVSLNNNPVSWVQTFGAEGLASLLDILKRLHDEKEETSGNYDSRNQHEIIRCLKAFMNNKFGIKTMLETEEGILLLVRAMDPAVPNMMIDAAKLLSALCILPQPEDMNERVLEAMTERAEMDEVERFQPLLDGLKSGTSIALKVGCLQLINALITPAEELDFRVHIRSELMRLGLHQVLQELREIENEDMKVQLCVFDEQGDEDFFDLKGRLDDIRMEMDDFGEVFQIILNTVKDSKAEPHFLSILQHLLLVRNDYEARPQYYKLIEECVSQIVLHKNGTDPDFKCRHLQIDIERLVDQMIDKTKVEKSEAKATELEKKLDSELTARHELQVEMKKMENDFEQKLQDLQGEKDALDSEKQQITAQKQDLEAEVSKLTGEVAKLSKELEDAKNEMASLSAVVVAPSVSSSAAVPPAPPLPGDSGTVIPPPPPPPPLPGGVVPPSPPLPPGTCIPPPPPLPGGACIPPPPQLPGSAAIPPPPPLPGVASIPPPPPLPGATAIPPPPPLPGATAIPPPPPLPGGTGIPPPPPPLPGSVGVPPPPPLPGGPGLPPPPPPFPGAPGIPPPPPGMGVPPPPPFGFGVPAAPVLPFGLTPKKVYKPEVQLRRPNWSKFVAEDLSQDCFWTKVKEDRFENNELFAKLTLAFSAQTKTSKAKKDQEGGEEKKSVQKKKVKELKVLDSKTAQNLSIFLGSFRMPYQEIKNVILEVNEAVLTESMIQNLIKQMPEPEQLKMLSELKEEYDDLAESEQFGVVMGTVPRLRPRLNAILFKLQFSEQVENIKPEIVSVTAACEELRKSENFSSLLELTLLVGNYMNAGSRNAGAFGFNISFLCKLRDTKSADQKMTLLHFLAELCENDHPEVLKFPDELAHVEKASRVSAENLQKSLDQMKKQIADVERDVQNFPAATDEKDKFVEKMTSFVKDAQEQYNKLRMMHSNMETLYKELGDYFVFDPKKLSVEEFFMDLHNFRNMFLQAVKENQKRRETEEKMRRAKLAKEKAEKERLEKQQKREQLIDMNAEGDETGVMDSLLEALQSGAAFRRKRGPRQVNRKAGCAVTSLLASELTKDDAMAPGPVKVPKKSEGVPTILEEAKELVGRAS

Target: GST-tagged VASP-EVH1 domain (UniProt P50552)
Experiment: affinity purification with mass spectrometry; GST-VASP-EVH1 on GST-bind resin beads incubated with lysates of immature or mature (LPS-treated) DCs in RIPA buffer (10 mM HEPES, 50 mM NaCl, 1% NP-40, 0.5% DOC, 0.1% SDS, pH 7.7), with or without 100 µM EVH1-specific inhibitor ProM; eluates by LC/MS, label-free quantification; hits: enriched over, or absent from, the inhibitor-treated sample; two independent experiments; only the target purified

binding | Molecule
binds | Abi1 (from UniProt Q8CBW3 1-481)
binds | Cyfip1 (from UniProt Q7TMB8 1-1253)
binds | Cyfip2 (from UniProt Q5SQX6 1-1253)
binds | Wave2/Scar2/Wasf2 (from UniProt Q8BH43 1-497)
binds | mDia1/Diaph1 (from UniProt O08808 1-1255)
binds | B1
binds | B2
binds | B3
binds | B4
binds | B5

Reference: article PMC9581539
